From patent US12378320B2, “Methods for treating pancreatitis” (Cold Spring Harbor Laboratory, priority 2018, dated 2025) come the findings set out here.

For the data set, the system named is CA19-9 modified proteins. Briefly: CA19-9 IP/MS (iTRAQ) of organoid conditioned media after Dox treatment. Details: species or system mouse.
[1] abbreviates: A217 (genetic negative) organoids conditioned media, after 8 hours of treatment, CA19-9 IP with 5B1, relative to 17 0H NS19.
[2] abbreviates: A217 (genetic negative) organoids conditioned media, after 8 hours of treatment, CA19-9 IP with NS19-9, relative to 17 0H NS19.
The mark [3] stands for this setting: A217 (genetic negative) organoids conditioned media, before treatment (0H), CA19-9 IP with NS19-9, relative abundance, reference channel.
Setting [4] is: A220 (C;R^LSL;F) organoids conditioned media, before treatment (0H), CA19-9 IP with 5B1, relative to 17 0H NS19.
[5] abbreviates: CA19-9 IP/MS relative abundance, A217 (genetic negative) organoid conditioned media, 0H (before treatment), IP with NS19-9, reference channel = 1.
Setting [6] is: CA19-9 IP/MS relative abundance, A217 (genetic negative) organoid conditioned media, after 8 hours, IP with 5B1.
Setting [7] is: CA19-9 IP/MS relative abundance, A217 (genetic negative) organoid conditioned media, after 8 hours, IP with NS19-9.
[8] abbreviates: CA19-9 IP/MS relative abundance, A220 (C;R^LSL;F) organoid conditioned media, 0H (before treatment), IP with 5B1.

With O70514, the “17 0H 5B1 (CA19-9 IP/MS relative abundance)” value (A217 organoid conditioned media, 0H, 5B1) worked out at 2.317. Moreover, for the setting “A217 organoid conditioned media, 0H, NS19-9, every printed value in this column is 1”, the “17 0H NS19 (CA19-9 IP/MS relative abundance)” value was 1. Further, where the note is “A217 organoid conditioned media, 8 hours, 5B1”, the “17 8H 5B1 (CA19-9 IP/MS relative abundance)” value came to 3.106. Also, the “17 8H NS19 (CA19-9 IP/MS relative abundance)” value (A217 organoid conditioned media, 8 hours, NS19-9) was 0.606. Moreover, the “20 0H 5B1 (CA19-9 IP/MS relative abundance)” value (A220 organoid conditioned media, 0H, 5B1) is on record as 1.595. For the same substance, under “A220 organoid conditioned media, 0H, NS19-9”, the “20 0H NS19 (CA19-9 IP/MS relative abundance)” value is 0.656. Besides, where the note is “A220 organoid conditioned media, 8 hours, 5B1”, the “20 8H 5B1 (CA19-9 IP/MS relative abundance)” value is on record as 3.708. For the same substance, the “20 8H NS19 (CA19-9 IP/MS relative abundance)” value (A220 organoid conditioned media, 8 hours, NS19-9) stood at 0.694.

O88844: the “17 8H 5B1” value under setting [1] is recorded as 2.947. In addition, the “17 8H NS19” value under setting [2] worked out at 0.735. Besides, under setting [3], the “17 0H NS19” value is reported as 1. Moreover, the “20 0H 5B1” value under setting [4] is given as 2.088.

With P01654, under setting [5], the “17 0H NS19” value was determined as 1. For the same substance, the “17 8H 5B1” value under setting [6] stood at 0.844. Also, the “17 8H NS19” value under setting [7] is recorded as 0.717. The “20 0H 5B1” value under setting [8] is 0.743.

P01837: the “17 0H NS19” value under setting [5] came out at 1. Further, under setting [6], the “17 8H 5B1” value was determined as 0.091. In addition, under setting [7], the “17 8H NS19” value was determined as 0.885. Also, the “20 0H 5B1” value under setting [8] turned out to be 0.057.

Take P02104: the “17 8H 5B1” value under setting [1] is reported as 3.568. The “17 8H NS19” value under setting [2] stood at 0.977. Further, the “17 0H NS19” value under setting [3] was determined as 1. Besides, the “20 0H 5B1” value under setting [4] was determined as 2.878.

In the case of P05213, the “17 0H NS19” value under setting [5] came out at 1. Besides, under setting [6], the “17 8H 5B1” value was found to be 6.52. Besides, the “17 8H NS19” value under setting [7] is on record as 0.679. Under setting [8], the “20 0H 5B1” value is given as 4.707.

For P07724, the “17 0H NS19” value under setting [5] is on record as 1. The “17 8H 5B1” value under setting [6] is given as 0.388. Besides, the “17 8H NS19” value under setting [7] was determined as 1.1. Further, the “20 0H 5B1” value under setting [8] was 0.288.

Consider P07901, for which the “17 0H NS19” value under setting [5] was found to be 1. For the same substance, under setting [6], the “17 8H 5B1” value is 4.407. Further, under setting [7], the “17 8H NS19” value is listed as 0.689. Further, the “20 0H 5B1” value under setting [8] came out at 3.683.

For the substance P10126, the “17 0H NS19” value under setting [5] is on record as 1. For the same substance, the “17 8H 5B1” value under setting [6] was 4.381. For the same substance, under setting [7], the “17 8H NS19” value is on record as 0.652. Also, the “20 0H 5B1” value under setting [8] came out at 3.724.

Regarding P11499, the “17 0H NS19” value under setting [5] is recorded as 1. The “17 8H 5B1” value under setting [6] amounted to 5.452. Under setting [7], the “17 8H NS19” value is 0.678. For the same substance, the “20 0H 5B1” value under setting [8] is 4.681.

For P11983, the “17 0H NS19” value under setting [5] came out at 1. Under setting [6], the “17 8H 5B1” value turned out to be 3.706. The “17 8H NS19” value under setting [7] is reported as 0.605. The “20 0H 5B1” value under setting [8] came out at 3.052.

As to P16125, the “17 0H NS19” value under setting [5] was determined as 1. The “17 8H 5B1” value under setting [6] came out at 3.424. Further, the “17 8H NS19” value under setting [7] was 0.614. The “20 0H 5B1” value under setting [8] is 2.825.

On to P16627, for which the “17 0H NS19” value under setting [5] came out at 1. Moreover, the “17 8H 5B1” value under setting [6] was determined as 3.954. In addition, under setting [7], the “17 8H NS19” value turned out to be 0.657. For the same substance, the “20 0H 5B1” value under setting [8] was found to be 3.284.

Turning to P17879, the “17 0H NS19” value under setting [5] was determined as 1. Also, the “17 8H 5B1” value under setting [6] stood at 3.557. Also, the “17 8H NS19” value under setting [7] is 0.65. The “20 0H 5B1” value under setting [8] came out at 3.1.

Regarding P20029, under setting [5], the “17 0H NS19” value is reported as 1. Further, under setting [6], the “17 8H 5B1” value came to 6.854. The “17 8H NS19” value under setting [7] is on record as 0.748. The “20 0H 5B1” value under setting [8] was 5.533.

As to P20152, under setting [5], the “17 0H NS19” value is listed as 1. Moreover, under setting [6], the “17 8H 5B1” value is reported as 10.327. Also, the “17 8H NS19” value under setting [7] was determined as 0.527. Further, under setting [8], the “20 0H 5B1” value was 10.501.

Consider P26443, for which the “17 0H NS19” value under setting [5] is on record as 1. Besides, under setting [6], the “17 8H 5B1” value is 7.206. Moreover, the “17 8H NS19” value under setting [7] is 0.564. Besides, the “20 0H 5B1” value under setting [8] came out at 6.1.

Regarding P31001, the “17 0H NS19” value under setting [5] was 1. Under setting [6], the “17 8H 5B1” value came out at 21.134. The “17 8H NS19” value under setting [7] turned out to be 0.743. Under setting [8], the “20 0H 5B1” value turned out to be 20.623.

On to P50446, for which the “17 0H NS19” value under setting [5] came out at 1. Also, the “17 8H 5B1” value under setting [6] is reported as 0.796. For the same substance, the “17 8H NS19” value under setting [7] is given as 1.21. The “20 0H 5B1” value under setting [8] came out at 1.064.
